Article PMC2871791
These are yes or no findings as the source states them, for the method shown. Sequences can lack the tags named with a protein.

Experiments:
Experiment in all cases: two-hybrid; LexA system in S. cerevisiae DY1 with β-galactosidase reporter pSH18-34; integrin cytoplasmic domains in pEG202, kermit2 constructs in pJG4-6; prey induced 6 hours in galactose/raffinose; quantified with ONPG, normalised to a positive control
[1] = target: T1, Xenopus integrin α5 cytoplasmic domain, yeast two-hybrid fusion (Xenopus laevis)
T1 sequence: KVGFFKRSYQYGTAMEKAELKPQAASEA

[2] = target: T2, Xenopus integrin α6 cytoplasmic domain, yeast two-hybrid fusion (Xenopus laevis)
T2 sequence: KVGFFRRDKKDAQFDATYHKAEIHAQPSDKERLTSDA

[3] = target: T3, Xenopus integrin αV cytoplasmic domain, yeast two-hybrid fusion (Xenopus laevis)
T3 sequence: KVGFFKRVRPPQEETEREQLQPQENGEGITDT

Measured: binding

kermit2mut (PDZ domain ALGL altered), yeast two-hybrid fusion (Xenopus laevis)
no binding: all assays above
